Measurements from PubChem BioAssay AID2549 (National Center for Advancing Translational Sciences (NCATS), 2010).
Several values for one entry are separate records, joined by “and”; a condition that tells them apart may be missing. Equal values may be shown once. The campaign covered roughly 240,000 compounds. About 1,300 (0.54%) were called active. This list was built around the results that the source calls inconclusive (neither active nor inactive); the mix of calls is not that of the screen. Calls come from the whole dose curve; as a rule, active = well fitted inhibition curve with a large enough effect; inconclusive = small, poorly fitted or top-dose-only effect; inactive = flat fitted curve, though single readings scatter. Potencies beside an inconclusive call are fits to weak or partial responses and may not hold up. Where a structure was tested more than once in an assay, its records may differ in their call.

Protein sequences, listed by entry. Tags and fused reporters are not part of them. Lines headed by an entry give the natural chain unless they say otherwise; changes in a name come on top.
UniProt P46063: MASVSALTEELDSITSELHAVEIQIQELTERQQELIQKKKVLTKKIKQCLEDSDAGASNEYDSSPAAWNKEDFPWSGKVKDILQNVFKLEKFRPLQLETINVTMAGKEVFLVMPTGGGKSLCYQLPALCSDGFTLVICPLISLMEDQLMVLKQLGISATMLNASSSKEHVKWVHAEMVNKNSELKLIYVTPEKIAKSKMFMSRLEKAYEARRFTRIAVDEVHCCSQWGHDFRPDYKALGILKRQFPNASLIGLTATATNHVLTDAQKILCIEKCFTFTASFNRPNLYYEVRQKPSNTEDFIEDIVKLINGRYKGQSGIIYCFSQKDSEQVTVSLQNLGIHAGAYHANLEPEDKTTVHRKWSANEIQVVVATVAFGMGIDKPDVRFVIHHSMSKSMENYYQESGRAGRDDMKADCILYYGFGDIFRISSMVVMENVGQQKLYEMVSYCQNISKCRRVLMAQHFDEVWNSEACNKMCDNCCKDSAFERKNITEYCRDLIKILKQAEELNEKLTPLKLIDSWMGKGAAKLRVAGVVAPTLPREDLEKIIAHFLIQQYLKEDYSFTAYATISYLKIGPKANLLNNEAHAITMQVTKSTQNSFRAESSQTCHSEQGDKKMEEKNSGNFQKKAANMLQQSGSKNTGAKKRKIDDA

These compounds were tested against ATP-dependent DNA helicase Q1 (Homo sapiens) (UniProt P46063) (assay: qHTS Assay for Inhibitors of RecQ-Like Dna Helicase 1 (RECQ1)). Details: RECQ1 DNA unwinding, red fluorescence kinetic read; series mostly up to 57.3 µM; activity, negative = inhibition: at the top concentration.
Outline: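 50 nM RECQ1T1 preincubated 15 min with compound in Tris pH 8.0 buffer with MgCl2, DTT, Tween-20 and 2.5 ug/ml poly(dI-dC); started with 200 nM TAMRA/BHQ-2 forked duplex and 2 mM ATP. Unwinding read as fluorescence (525/598 nm), two reads 2 h apart.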
Note: nearly all actives have a fitted effect of over 30% in size.
Potency is the fitted concentration of half-maximal effect.
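Throughout, for activity, negative = inhibition: plate controls were vehicle for no effect and no enzyme for full effect.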

| SMILES | Potency | activity, negative = inhibition | outcome |
| --- | --- | --- | --- |
| CC(=O)c1c(O)c(C)c(O)c(Cc2c(O)c3c(c(C(=O)/C=C/c4ccccc4)c2O)OC(C)(C)C=C3)c1O | inconclusive: 39.8 µM [inhibitor, single point] and inconclusive: 35.5 µM [inhibitor, single point] |  |  |
| CCc1nnc(NC(=O)CSc2ccc(-c3ccco3)nn2)s1 | inconclusive: 39.8 µM [inhibitor, single point] |  |  |
| Cc1ccccc1N1C(=O)NC(=O)/C(=C\c2cc(Br)c(N3CCOCC3)o2)C1=O | inconclusive: 35.5 µM [inhibitor, single point] |  |  |
| Cc1ccc(Cn2ccc(NC(=O)c3cc(-c4ccco4)on3)n2)cc1 | inconclusive: 31.6 µM [inhibitor, single point] |  |  |
| O=C1NC(=S)N(c2ccccc2F)C(=O)/C1=C\c1cccs1 | inconclusive: 35.5 µM [inhibitor, single point] |  |  |
| CC(=O)O.CC(=O)O.[Cd] | inconclusive: 39.8 µM [inhibitor, single point] |  |  |
| COc1ccc(N/N=C/c2c(O)n(-c3ccc(C)c(C)c3)c(=O)[nH]c2=O)cc1 | inconclusive: 25.1 µM [inhibitor, partial curve] |  |  |
| CN(C)C(=O)Cl |  | inactive: -3.46% |  |
| C[C@H]1COC2=C1C(=O)C(=O)c1c2ccc2c1CCCC2(C)C |  | inactive: -20.1% |  |
| O=c1[nH]c(=S)n(Cc2ccco2)c(O)c1C=NCc1cccs1 | inconclusive: 28.2 µM [inhibitor, single point] |  |  |
| CCCCCCCCCCCCCCOS(=O)(=O)O | inconclusive: 39.8 µM [inhibitor, single point] |  |  |
| CCCCC/C=C\C/C=C\C/C=C\C/C=C\CCCC(=O)NCC(=O)O | active: 3.55 µM |  |  |
| CCCCN1C(=O)NC(=O)/C(=C/c2cnc(SC)nc2)C1=O |  | inactive: -5.46% |  |
| C/C=C(\C)C(=O)OC1C(C)=C2C(C1OC(=O)CCCCC)C(C)(OC(C)=O)CC(OC(=O)CCC)C1(O)C2OC(=O)C1(C)O (stereo not given) | inconclusive: 28.2 µM [inhibitor, single point] |  |  |
| N#CC1=C(N)Oc2n[nH]c(-c3cccs3)c2C1c1ccco1 (stereo not given) | active: 31.6 µM |  |  |
| COC(=O)C(C)Oc1cc(C)cc2oc(=O)c3c(c12)CCCC3 (stereo not given) |  |  | inactive |
| CN1C[C@@H](C(=O)N[C@@]2(C)O[C@]3(O)C4CCCN4C(=O)[C@@H](Cc4ccccc4)N3C2=O)C=C2c3cccc4[nH]cc(c34)C[C@@H]21 (stereo not given in full) | inconclusive: 20 µM [inhibitor, full curve, poor fit] |  |  |
| COc1ccc(N2C(=O)NC(=O)/C(=C\c3ccc([N+](=O)[O-])s3)C2=O)cc1 | inconclusive: 22.4 µM [inhibitor, single point] |  |  |
| COc1cccc(CNC(=O)CSc2ccc(-c3ccco3)nn2)c1 | inconclusive: 39.8 µM [inhibitor, single point] |  |  |
| CCC(C)NC(=O)c1c(N)n(CC2CCCO2)c2nc3ccccc3nc12 (stereo not given) | inconclusive: 39.8 µM [inhibitor, single point] |  |  |
| CC(=O)O[C@H]1C(=O)[C@@]2(C)C([C@H](OC(=O)c3ccccc3)[C@]3(O)C[C@H](OC(=O)[C@H](O)[C@@H](NC(=O)c4ccccc4)c4ccccc4)C(C)=C1C3(C)C)[C@]1(OC(C)=O)CO[C@@H]1C[C@@H]2OC(=O)[C@H](C)NC(=O)c1ccc(-c2c3ccc(=O)cc-3oc3cc(O)ccc23)c(C(=O)O)c1 (stereo not given in full) | active: 3.16 µM |  |  |
| CC(O)C(C)OC(=O)[C@@H]1C[C@@H]2c3cccc4c3c(cn4C(C)C)C[C@H]2N(C)C1 (stereo not given in full) | active: 35.5 µM |  |  |
| CN(C(=O)Oc1cccc2cccnc12)c1ccccc1 |  | inactive: -2.68% |  |
| CCOC(=O)C1SC2(C(F)(F)F)CC1(O)c1c(C)cc(C)nc1O2 (stereo not given) | inconclusive: 0.199 µM [inhibitor, full curve] |  |  |

A second format for 17 compounds above.
SMILES	Potency	activity, negative = inhibition	outcome
Cc1ccccc1N1C(=O)NC(=O)/C(=C\c2cc(Br)c(N3CCOCC3)o2)C1=O	inconclusive: 35.5 µM [inhibitor, single point]		
Cc1ccc(Cn2ccc(NC(=O)c3cc(-c4ccco4)on3)n2)cc1	inconclusive: 31.6 µM [inhibitor, single point]		
CC(=O)O.CC(=O)O.[Cd]	inconclusive: 39.8 µM [inhibitor, single point]		
COc1ccc(N/N=C/c2c(O)n(-c3ccc(C)c(C)c3)c(=O)[nH]c2=O)cc1	inconclusive: 25.1 µM [inhibitor, partial curve]		
CN(C)C(=O)Cl		inactive: -3.46%	
C[C@H]1COC2=C1C(=O)C(=O)c1c2ccc2c1CCCC2(C)C		inactive: -20.1%	
O=c1[nH]c(=S)n(Cc2ccco2)c(O)c1C=NCc1cccs1	inconclusive: 28.2 µM [inhibitor, single point]		
CCCCCCCCCCCCCCOS(=O)(=O)O	inconclusive: 39.8 µM [inhibitor, single point]		
CCCCC/C=C\C/C=C\C/C=C\C/C=C\CCCC(=O)NCC(=O)O	active: 3.55 µM		
C/C=C(\C)C(=O)OC1C(C)=C2C(C1OC(=O)CCCCC)C(C)(OC(C)=O)CC(OC(=O)CCC)C1(O)C2OC(=O)C1(C)O (stereo not given)	inconclusive: 28.2 µM [inhibitor, single point]		
CN1C[C@@H](C(=O)N[C@@]2(C)O[C@]3(O)C4CCCN4C(=O)[C@@H](Cc4ccccc4)N3C2=O)C=C2c3cccc4[nH]cc(c34)C[C@@H]21 (stereo not given in full)	inconclusive: 20 µM [inhibitor, full curve, poor fit]		
COc1ccc(N2C(=O)NC(=O)/C(=C\c3ccc([N+](=O)[O-])s3)C2=O)cc1	inconclusive: 22.4 µM [inhibitor, single point]		
COc1cccc(CNC(=O)CSc2ccc(-c3ccco3)nn2)c1	inconclusive: 39.8 µM [inhibitor, single point]		
CCC(C)NC(=O)c1c(N)n(CC2CCCO2)c2nc3ccccc3nc12 (stereo not given)	inconclusive: 39.8 µM [inhibitor, single point]		
CC(=O)O[C@H]1C(=O)[C@@]2(C)C([C@H](OC(=O)c3ccccc3)[C@]3(O)C[C@H](OC(=O)[C@H](O)[C@@H](NC(=O)c4ccccc4)c4ccccc4)C(C)=C1C3(C)C)[C@]1(OC(C)=O)CO[C@@H]1C[C@@H]2OC(=O)[C@H](C)NC(=O)c1ccc(-c2c3ccc(=O)cc-3oc3cc(O)ccc23)c(C(=O)O)c1 (stereo not given in full)	active: 3.16 µM		
CC(O)C(C)OC(=O)[C@@H]1C[C@@H]2c3cccc4c3c(cn4C(C)C)C[C@H]2N(C)C1 (stereo not given in full)	active: 35.5 µM		
CN(C(=O)Oc1cccc2cccnc12)c1ccccc1		inactive: -2.68%	

More records follow:

| SMILES | Potency | activity, negative = inhibition | outcome |
| --- | --- | --- | --- |
| C[N+]1(C)C2CCC1CC(OC(=O)c1c[nH]c3ccccc13)C2 (stereo not given) |  | inactive: -3.19% |  |
| N#C/C(=C\c1ccc(O)c(O)c1)C(N)=S | inactive and active: 5.62 µM |  |  |
| O=C1NC(=O)N(Cc2ccco2)C(=O)/C1=C\c1ccc(-c2ccc(F)cc2)o1 | active: 25.1 µM |  |  |
| NNC(N)=S |  | inactive: -5.21% |  |
| Clc1ccc(COC(Cn2ccnc2)c2ccc(Cl)cc2Cl)c(Cl)c1 (stereo not given) | inconclusive: 0.0282 µM [inhibitor, full curve, poor fit] |  |  |
| O=C1C(Cl)=C(Cl)C(=O)C(Cl)=C1Cl | inconclusive: 31.6 µM [inhibitor, single point] |  |  |
| Cc1ccc(N)cc1[N+](=O)[O-] | inconclusive: 3.98 µM [inhibitor, full curve, poor fit] |  |  |
| O=c1cc(-c2ccc(O)c(O)c2)oc2cc(O)cc(O)c12 | active: 8.91 µM [middle of 4 runs] |  |  |
| COc1ccc(OC)c(C(O)C(C)N)c1 (stereo not given) | inactive |  |  |
| O=C(OCC1O[C@@H](OC(=O)c2cc(O)c(O)c(O)c2)[C@@H](OC(=O)c2cc(O)c(O)c(O)c2)[C@@H](OC(=O)c2cc(O)c(O)c(O)c2)[C@@H]1OC(=O)c1cc(O)c(O)c(O)c1)c1cc(O)c(O)c(O)c1 (stereo not given in full) | active: 0.112 µM |  |  |
| NC(N)=NOCCC(N)C(=O)O (stereo not given) | inconclusive: 0.178 µM [inhibitor, partial curve, poor fit] |  |  |
| BrCC(Br)C1CCC(Br)C(Br)C1 (stereo not given) |  | inactive: 17.3% |  |
| N#CC(C#N)=Cc1ccc(O)cc1 | inactive |  |  |
| CN(C)c1ccc(/C=C2/C(=O)NC(=O)N(Cc3ccco3)C2=O)cc1 | inconclusive: 35.5 µM [inhibitor, single point] |  |  |
| Cc1ccsc1C(=O)C1CCCN(Cc2ccccc2O)C1 (stereo not given) | inconclusive: 39.8 µM [inhibitor, single point] |  |  |
| CNc1ccc2oc(C[C@H]3O[C@@]4(CC[C@H]3C)O[C@H]([C@H](C)C(=O)c3ccc[nH]3)[C@H](C)C[C@H]4C)nc2c1C(=O)O | inactive and inconclusive: 35.5 µM [inhibitor, single point] |  |  |
| C=CCN1C(=O)/C(=C/c2cc(C)n(-c3ccccn3)c2C)C(=O)NC1=S | inconclusive: 31.6 µM [inhibitor, single point] |  |  |
| C=C1C(=O)O[C@@H]2C[C@@H](C)[C@H]3C=CC(=O)[C@]3(O)C[C@@H]12 | inconclusive: 0.631 µM [inhibitor, full curve] |  |  |
| O=C1NC(=O)N(c2ccc(Cl)cc2)C(=O)/C1=C/c1coc2ccc(O)cc2c1=O | inconclusive: 35.5 µM [inhibitor, single point] |  |  |
| Cc1cccc(CN2CCN(c3ccc(Cl)cc3)CC2)c1 |  |  | inactive |
| C/C(=N\Nc1cccc2ccccc12)c1c(O)n(Cc2ccccc2)c(=O)[nH]c1=O |  | inactive: -26% |  |
| CC[C@@]1(O)C(=O)OCc2c1cc1n(c2=O)Cc2cc3c(N)cccc3nc2-1 | inconclusive: 39.8 µM [inhibitor, single point] |  |  |
| Cc1ccc(CNCCc2ccccc2F)cc1 |  | inactive: -2.78% |  |
| CNC(=S)S |  | inactive: -0.474% |  |

| SMILES | Potency | activity, negative = inhibition | outcome |
| --- | --- | --- | --- |
| COc1ccc(Cn2c(O)c(/C=N/NC(=O)c3ccccc3O)c(=O)[nH]c2=O)cc1 |  | inactive: -9.67% |  |
| O=C1NC(=O)N(c2ccccc2F)C(=O)/C1=C/c1ccc(Sc2nc3ccccc3[nH]2)o1 | inconclusive: 4.47 µM [inhibitor, single point] |  |  |
| Cc1ccc(-n2c(O)c(/C=N/N3CCCCC3c3cccnc3)c(=O)[nH]c2=S)cc1 (stereo not given) | active: 31.6 µM |  |  |
| COc1ccc2c3c([nH]c2c1)C(C)=NCC3 | active: 14.1 µM |  |  |
| CCC(C)(C)c1ccc(O)cc1 |  | inactive: -16.3% |  |
| COC(=O)C1C=C2c3cccc4[nH]cc(c34)CC2N(C)C1 (stereo not given) | inconclusive: 39.8 µM [inhibitor, single point] |  |  |
| O=C1NC(=O)N(CCNc2ncc(C(F)(F)F)cc2Cl)C(=O)C1/C=N/OCc1c(F)cccc1Cl (stereo not given) | inconclusive: 6.31 µM [inhibitor, single point] |  |  |
| CC(=O)NC(Cc1ccc(N(CCCl)CCCl)cc1)C(=O)NC(C(=O)O)C(C)C (stereo not given) |  |  | inactive |
| O=C1CS[C@@H](c2ccccc2Cl)c2cc(Cl)ccc2N1 | inconclusive: 7.94 µM [inhibitor, full curve] |  |  |
| O=C(CSC1c2ccccc2-c2ccccc21)N/N=C/c1ccc(C(=O)O)cc1 |  | inactive: 13.9% |  |
| O=C(N/N=C/C1C(=O)NC(=S)N(c2ccccc2)C1=O)c1cc(Br)c(O)c(Br)c1 (stereo not given) | inconclusive: 39.8 µM [inhibitor, single point] |  |  |
| CCN1/C(=C\C=C\C2=[N+](CC)c3ccccc3C2(C)C)C(C)(C)c2ccccc21 | active: 28.2 µM |  |  |
| O=c1[nH]c(=O)n(CCC2=CCCCC2)c(O)c1/C=N/Nc1cccc2ccccc12 | inconclusive: 39.8 µM [inhibitor, single point] |  |  |
| CCCC[C@H]1C(=O)O[C@H](C)[C@H](NC(=O)c2cccc(NC=O)c2OC)C(=O)O[C@@H](C)[C@@H]1OC(=O)CC(C)C | inactive |  |  |
| Oc1ccccc1O | active: 15.8 µM |  |  |
| CCC1(C)OC(c2ccccc2)=C/C(=C/C=C2C(=O)NC(=O)NC2=O)O1 (stereo not given) | active: 8.91 µM |  |  |
| CC(=O)Nc1c2sscc-2n(C)c1=O |  |  | inactive |
| O=C(/C=C/c1ccc(Cl)cc1)N[C@@]12CCC(=O)[C@@H]3Oc4c(O)ccc5c4[C@@]31CCN(CC1CC1)C2C5 |  | inactive: 4.78% |  |
| CCC(=NCCO)c1c(O)n(-c2ccccc2)c(=O)[nH]c1=O |  |  | inactive |
| CCc1ccc(N2C(=O)NC(=O)/C(=C/c3cccn3CCOc3ccc(C)cc3)C2=O)cc1 | inconclusive: 35.5 µM [inhibitor, single point] |  |  |
| O=c1[nH]c(=S)n(CCC2=CCCCC2)c(O)c1C=NCCCn1ccnc1 | inconclusive: 39.8 µM [inhibitor, single point] |  |  |
| CCC(=NCCc1c[nH]c2ccccc12)c1c(O)n(C)c(=O)n(C)c1=O | inconclusive: 0.0891 µM [inhibitor, full curve, poor fit] |  |  |
